Measured values taken from US10772967B2, “Enhanced anticancer agent” (priority 2014, dated 2020).
At least one peptide structure holds a part that was inferred or is arguable (an end, a ring closure or a residue).

Molecular target: T1, GnRH-R (Rattus norvegicus, UniProt P30969)
T1 construct: from tissue; host or cells: pituitary gland of living male Sprague-Dawley rats
T1 sequence (P30969 1-327): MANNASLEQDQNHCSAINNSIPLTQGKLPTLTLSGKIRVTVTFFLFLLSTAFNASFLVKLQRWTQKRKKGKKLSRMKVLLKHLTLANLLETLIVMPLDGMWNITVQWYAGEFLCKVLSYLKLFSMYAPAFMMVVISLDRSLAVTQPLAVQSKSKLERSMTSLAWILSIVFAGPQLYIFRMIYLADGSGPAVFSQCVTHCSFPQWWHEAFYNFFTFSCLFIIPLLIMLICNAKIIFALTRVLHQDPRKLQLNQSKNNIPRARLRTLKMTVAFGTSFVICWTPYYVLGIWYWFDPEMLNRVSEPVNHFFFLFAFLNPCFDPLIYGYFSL
Experiment: Efficacy of Conj4 in rats, serum testosterone by ELISA
Type: in vivo
Details: male rats, single i.v. 120 picomoles/kg

In the case of `CC(C)C[C@H](NC(=O)[C@@H](CCCCN)NC(=O)[C@H](Cc1ccc(O)cc1)NC(=O)[C@H](CO)NC(=O)[C@H](Cc1c[nH]c2ccccc12)NC(=O)[C@H](Cc1c[nH]cn1)NC(=O)[C@@H]1CCC(=O)N1)C(=O)N[C@@H](CCCNC(=N)N)C(=O)N1CCC[C@H]1C(=O)NCC(N)=O` [GnRH-A], the “time for testosterone to return to vehicle treated levels / pretreatment range” value was at most 8 h and the “serum testosterone level at 8 h” value (8 h) was 3.6 ± 0.6 ng/mL.
